# Data from PubChem BioAssay (Tox21).
# By UniProt entry, the sequences of proteins in these tests, tags left out. Where a name states a change or a piece, a line headed by the entry shows the natural chain unless it says otherwise.
# UniProt P28223, whole entry, looked up: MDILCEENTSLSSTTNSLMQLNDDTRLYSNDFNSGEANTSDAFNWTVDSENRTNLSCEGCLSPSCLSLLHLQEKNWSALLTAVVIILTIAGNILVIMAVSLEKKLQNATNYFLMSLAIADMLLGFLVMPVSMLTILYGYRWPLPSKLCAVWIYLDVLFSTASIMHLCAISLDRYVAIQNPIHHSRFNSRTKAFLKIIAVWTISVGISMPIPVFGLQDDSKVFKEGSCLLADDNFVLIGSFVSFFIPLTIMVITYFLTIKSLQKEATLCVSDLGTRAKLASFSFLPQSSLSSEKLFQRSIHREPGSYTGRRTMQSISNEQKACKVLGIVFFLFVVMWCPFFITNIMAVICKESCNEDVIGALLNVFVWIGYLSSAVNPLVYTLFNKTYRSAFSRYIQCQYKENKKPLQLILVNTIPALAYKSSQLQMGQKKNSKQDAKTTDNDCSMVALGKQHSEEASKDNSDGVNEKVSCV
# UniProt P14416, whole entry, looked up: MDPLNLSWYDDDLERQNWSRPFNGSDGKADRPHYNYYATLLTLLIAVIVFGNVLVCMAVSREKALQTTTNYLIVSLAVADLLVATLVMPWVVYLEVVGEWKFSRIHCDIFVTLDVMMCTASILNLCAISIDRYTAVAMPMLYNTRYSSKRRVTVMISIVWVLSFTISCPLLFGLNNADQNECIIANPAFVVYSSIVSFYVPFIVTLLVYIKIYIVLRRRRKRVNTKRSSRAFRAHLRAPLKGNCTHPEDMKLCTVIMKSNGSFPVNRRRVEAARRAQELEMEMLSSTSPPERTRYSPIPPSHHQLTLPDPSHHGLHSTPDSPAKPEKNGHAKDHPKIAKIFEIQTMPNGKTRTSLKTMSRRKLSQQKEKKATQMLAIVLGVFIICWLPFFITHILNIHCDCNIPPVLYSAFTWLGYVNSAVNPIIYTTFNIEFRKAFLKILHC
# UniProt P11229: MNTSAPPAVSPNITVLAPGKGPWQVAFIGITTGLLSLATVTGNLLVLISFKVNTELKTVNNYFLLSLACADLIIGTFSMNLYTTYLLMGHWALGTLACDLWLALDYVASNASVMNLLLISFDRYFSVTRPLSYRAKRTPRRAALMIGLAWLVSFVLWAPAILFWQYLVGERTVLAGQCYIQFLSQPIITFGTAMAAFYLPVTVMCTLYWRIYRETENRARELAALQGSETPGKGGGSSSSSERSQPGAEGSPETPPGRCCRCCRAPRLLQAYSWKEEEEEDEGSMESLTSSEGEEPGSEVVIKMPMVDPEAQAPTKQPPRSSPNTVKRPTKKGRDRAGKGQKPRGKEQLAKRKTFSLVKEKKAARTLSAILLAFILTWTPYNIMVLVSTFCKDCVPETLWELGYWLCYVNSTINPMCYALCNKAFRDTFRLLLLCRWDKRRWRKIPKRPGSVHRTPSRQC
# Several values for one entry are separate records, joined by “and”; a condition that tells them apart may be missing. Equal values may be shown once. The inconclusive results got no clear call from the source; some entries with a clear call stand among them for comparison. For some of these results: Potencies of inconclusive entries are doubtful fits and often do not repeat. Activity calls are given as the source filed them. Unless noted, calls follow the shape of the full dose curve.
# Columns and labels:
# [1] = Nuclear factor erythroid 2-related factor 2/antioxidant responsive element (Nrf2/ARE) small molecule agonists: luciferase reporter gene qHTS assay in human keratinocytes (AID 1919969); conditions: KeratinoSens HaCaT ARE-luciferase, luminescence, 24 h; series mostly up to 92.4 µM; also: potency is read from the fitted curve at half-maximal effect; nearly all actives have a fitted effect of over 35% in size
# [2] = p53 small molecule agonists, cell-based qHTS assay with human liver microsomes: qHTS cell viability counter screen (AID 1963579); conditions: p53RE-bla HCT-116 viability, ATP luminescence, 16 h, HLM; series mostly up to 66 µM; also: potency is read from the fitted curve at half-maximal effect; nearly all actives have a fitted effect of over 45% in size
# Method in brief: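 Tox21 library compounds, delivered from DMSO stocks, were tested on p53RE-bla cells together with 0.5 mg/mL human liver microsomes and 0.5 mg/mL NADPH (final) over 16 h at 37 C; CellTiter-Glo luminescence served as the cytotoxicity measure.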
# [3] = biological target: 5-hydroxytryptamine receptor 2A (Homo sapiens) (UniProt P28223); test: 5-hydroxytryptamine receptor 2A (HTR2A) small molecule antagonists, cell-based qHTS assay (AID 1963586); conditions: HTR2A-CHO cells, DOI-induced calcium flux, fluorescence; series mostly up to 61.5 µM; also: potency is read from the fitted curve at half-maximal effect; nearly all actives have a fitted effect of over 45% in size
# Method in brief: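 CHO cells stably expressing human HTR2A were plated for 18 h at 37 C, then loaded with calcium dye for 1 h. Compounds were preincubated 5 min at room temperature before DOI (4 nM solution) was added. Kinetic fluorescence was read for 3 min.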
# [4] = biological target: Beta-2 adrenergic receptor (Homo sapiens) (UniProt P07550); test: Adrenergic beta2 receptor (ADRB2) small molecule agonists, cell-based qHTS assay (AID 1963593); conditions: CHO-ADRB2 cells, cAMP HTRF, 30 min; activation: at 92.4 µM (top of the series) unless noted; also: potency is read from the fitted curve at half-maximal effect;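 as to activation: CHO cells stably overexpressing human ADRB2; % is scaled to controls: 0 for no effect and ±100 for the full control effect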
# Method in brief: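 CHO cells stably over-expressing ADRB2 were plated overnight at 37C, then dosed with compounds plus a stimulation mix containing 100uM IBMX and 25uM Ro-20-1724 for 0.5hr at room temperature. cAMP was measured by HTRF competition, 1hr.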
# [5] = biological target: D(2) dopamine receptor (Homo sapiens) (UniProt P14416); test: Dopamine D2 receptor (DRD2) small molecule agonists, cell-based qHTS assay (AID 1963594); conditions: HEK293-DRD2 cAMP HTRF, agonist mode, 30 min; activation: at 92.4 µM (top of the series) unless noted; also: potency is read from the fitted curve at half-maximal effect; nearly all actives have a fitted effect of over 35% in size
# Method in brief: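 cAMP accumulation in DRD2-HEK293 cells measured by HTRF after 1 h detection; compounds added 10 min before NKH477 (200nM […]) forskolin-analogue stimulation, 30 min at room temperature, with Ro20-1724 present at 0.1 mM final.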
# [6] = p53 small molecule agonists, cell-based qHTS assay: qHTS cell viability counter screen (AID 1963581); conditions: p53RE-bla HCT-116 viability, ATP luminescence, 16 h; series mostly up to 66 µM; also: potency is read from the fitted curve at half-maximal effect; nearly all actives have a fitted effect of over 45% in size
# Method in brief: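 Cytotoxicity read-out: ATP-based luminescence (CellTiter-Glo, 30 min RT) measured in the same wells as the p53 reporter assay, HCT-116 p53RE-bla cells, 16 h compound exposure at 37 C.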
# [7] = p53 small molecule agonists, cell-based qHTS assay (AID 1963582; active = well fitted activation curve with a large enough effect in the signal ratio in the repeat runs, not every such curve was filed as active; inconclusive = weak or mixed curves; the % refers to the signal ratio; also: % is scaled to controls: 0 for no effect and ±100 for the full control effect); conditions: HCT-116 p53RE-bla reporter, beta-lactamase FRET ratio, 16 h; activation: at 66 µM (top of the series) unless noted
# Method in brief: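 Fluorescence intensity read-out of a beta-lactamase reporter under a p53 response element. Cells were exposed to DMSO-dissolved compounds for 16 h at 37 C, then developed with FRET substrate for 2 h at RT.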
# [8] = biological target: Muscarinic acetylcholine receptor M1 (Homo sapiens) (UniProt P11229); test: Cholinergic receptor muscarinic 1 (CHRM1) small molecule antagonists, cell-based qHTS assay (AID 1963588); conditions: CHRM1-CHO antagonist mode, calcium flux fluorescence; series mostly up to 61.5 µM; also: potency is read from the fitted curve at half-maximal effect; nearly all actives have a fitted effect of over 40% in size
# Method in brief: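 Compounds were tested at 15 concentrations in three independent runs. Dye-loaded CHRM1-CHO cells were exposed 5 min at room temperature before stimulation by acetylcholine added at 50nM. Intracellular calcium was read kinetically on FDSS for 3 min.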
# [9] = cAMP Responsive Elements (CRE) small molecule antagonists, cell-based qHTS assay (AID 1963591; active = well fitted inhibition curve with a large enough effect in the signal ratio in the repeat runs, not every such curve was filed as active; inconclusive = weak or mixed curves, or effect the other way; the % refers to the signal ratio; also: % is scaled to controls: 0 for no effect and ±100 for the full control effect); conditions: CRE-bla HEK293T, beta-lactamase FRET ratio; activity change, negative = inhibition: at 92.4 µM (top of the series) unless noted
# Method in brief: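 HEK293T CRE-bla; 18 h preincubation; compound pin-transfer; NKH477 0.25 uM final, 3 h, 37 C; LiveBLAzer FRET substrate 2 h RT.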
# [10] = p53 small molecule agonists, cell-based qHTS assay with rat liver microsomes: qHTS cell viability counter screen (AID 1963580); conditions: p53RE-bla HCT-116 + rat microsomes, ATP viability, 16 h; series mostly up to 66 µM; also: potency is read from the fitted curve at half-maximal effect; nearly all actives have a fitted effect of over 45% in size
# Method in brief: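 Rat liver microsome (0.5 mg/mL final) and NADPH (0.5 mg/mL final) co-incubation with compounds for 16 h at 37 C on HCT-116 p53RE-bla cells; cytotoxicity taken from intracellular ATP luminescence.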
# [11] = biological target: D(2) dopamine receptor (Homo sapiens) (UniProt P14416); test: Dopamine D2 receptor (DRD2) small molecule antagonists, cell-based qHTS assay (AID 1963595; active = well fitted inhibition curve with a large enough effect in the signal ratio in the repeat runs, with a control signal flat; inconclusive = weak or mixed curves, or effect the other way; the % refers to the signal ratio; also: % is scaled to controls: 0 for no effect and ±100 for the full control effect); conditions: HEK293-DRD2 cAMP HTRF antagonist mode; activity change, negative = inhibition: at 92.4 µM (top of the series) unless noted
# Method in brief: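 Readout: HTRF cAMP, cAMP-d2 competing with cellular cAMP for anti-cAMP cryptate, read after 1 h. Cells: DRD2-HEK293. Conditions: 0.1 mM Ro20-1724, 12 nM quinpirole, 200 nM NKH477, 30 min RT.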
# [12] = cAMP Responsive Elements (CRE) small molecule agonists, cell-based qHTS assay (AID 1963590); conditions: CRE-bla HEK293T, beta-lactamase FRET ratio, 3 h; activation: at 92.4 µM (top of the series) unless noted; also: potency is read from the fitted curve at half-maximal effect
# Method in brief: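 Beta-lactamase reporter readout: LiveBLAzer B/G FRET substrate, 2 h at room temperature, added after 3 h compound treatment of CRE-bla HEK 293T cells at 37 C/5% CO2.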
smiles,measurement,setting,value
OC[P+](CO)(CO)CO,Potency,[1],inconclusive: 69.4 µM [activator]
same,Potency,[2],"inconclusive: 20.7 µM [cytotoxic, full curve]"
same,Potency,[3],"inconclusive: 0.151 µM [inhibitor, full curve, poor fit]"
same,activation,[4],inconclusive: 13.6% and inconclusive: 4.44%
same,Potency,[5],"inconclusive: 24.3 µM [rising, partial curve, poor fit]"
Cc1ccc(N=C=O)cc1N=C=O,Potency,[1],"active: 62.7 µM and inconclusive: 21.6 µM [activator, partial curve, poor fit] and active: 48.6 µM"
same,Potency,[6],"inconclusive: 52.6 µM [rising, single point]"
same,Potency,[7],inactive
same,Potency,[3],"inconclusive: 0.384 µM [inhibitor, single point]"
same,Potency,[8],inconclusive: 0.0011 µM [inhibitor]
same,"activity change, negative = inhibition",[9],inconclusive: 17.3%
same,Potency,[4],"inconclusive: 0.627 µM [inhibitor, single point]"
same,activation,[4],inconclusive: 8.65%
O=C(CBr)OCc1ccccc1,Potency,[1],"inconclusive: 12.2 µM [activator, single point]"
same,Potency,[10],"inconclusive: 51.3 µM [rising, single point]"
same,Potency,[9],inactive
same,activation,[4],inconclusive: 12.8%
same,Potency,[11],inactive
O=C(Nc1ccccc1)Nc1cnns1,Potency,[1],"inconclusive: 24.3 µM [activator, single point]"
same,Potency,[10],"inconclusive: 51.3 µM [cytotoxic, single point]"
same,Potency,[12],"inconclusive: 30.6 µM [rising, partial curve]"
same,Potency,[4],inactive

# Exported with bars between the fields: part of the list above
smiles | measurement | setting | value
O=C(CBr)OCc1ccccc1 | Potency | [10] | inconclusive: 51.3 µM [rising, single point]
same | Potency | [9] | inactive
